Laboratory results taken from patent US12419871B2, “Biomolecules involved in Alzheimer's disease” (ELECTROPHORETICS LIMITED, priority 2015, dated 2025).

B1: O43909 (protein, UniProt O43909 1-919, looked up)
chain: MTGYTMLRNGGAGNGGQTCMLRWSNRIRLTWLSFTLFVILVFFPLIAHYYLTTLDEADEAGKRIFGPRVGNELCEVKHVLDLCRIRESVSEELLQLEAKRQELNSEIAKLNLKIEACKKSIENAKQDLLQLKNVISQTEHSYKELMAQNQPKLSLPIRLLPEKDDAGLPPPKATRGCRLHNCFDYSRCPLTSGFPVYVYDSDQFVFGSYLDPLVKQAFQATARANVYVTENADIACLYVILVGEMQEPVVLRPAELEKQLYSLPHWRTDGHNHVIINLSRKSDTQNLLYNVSTGRAMVAQSTFYTVQYRPGFDLVVSPLVHAMSEPNFMEIPPQVPVKRKYLFTFQGEKIESLRSSLQEARSFEEEMEGDPPADYDDRIIATLKAVQDSKLDQVLVEFTCKNQPKPSLPTEWALCGEREDRLELLKLSTFALIITPGDPRLVISSGCATRLFEALEVGAVPVVLGEQVQLPYQDMLQWNEAALVVPKPRVTEVHFLLRSLSDSDLLAMRRQGRFLWETYFSTADSIFNTVLAMIRTRIQIPAAPIREEAAAEIPHRSGKAAGTDPNMADNGDLDLGPVETEPPYASPRYLRNFTLTVTDFYRSWNCAPGPFHLFPHTPFDPVLPSEAKFLGSGTGFRPIGGGAGGSGKEFQAALGGNVPREQFTVVMLTYEREEVLMNSLERLNGLPYLNKVVVVWNSPKLPSEDLLWPDIGVPIMVVRTEKNSLNNRFLPWNEIETEAILSIDDDAHLRHDEIMFGFRVWREARDRIVGFPGRYHAWDIPHQSWLYNSNYSCELSMVLTGAAFFHKYYAYLYSYVMPQAIRDMVDEYINCEDIAMNFLVSHITRKPPIKVTSRWTFRCPGCPQALSHDDSHFHERHKCINFFVKVYGYMPLLYTQFRVDSVLFKTRLPHDKTKCFKFI
modifications: full-length
B2: P20827 (protein, UniProt P20827 1-205, looked up)
chain: MEFLWAPLLGLCCSLAAADRHTVFWNSSNPKFRNEDYTIHVQLNDYVDIICPHYEDHSVADAAMEQYILYLVEHEEYQLCQPQSKDQVRWQCNRPSAKHGPEKLSEKFQRFTPFTLGKEFKEGHSYYYISKPIHQHEDRCLRLKVTVSGKITHSPQAHDNPQEKRLAADDPEVRVLHSIGHSAAPRLFPLAWTVLLLPLLLLQTP
modifications: full-length
B3: Q92506 (protein, UniProt Q92506 1-261, looked up)
chain: MASQLQNRLRSALALVTGAGSGIGRAVSVRLAGEGATVAACDLDRAAAQETVRLLGGPGSKEGPPRGNHAAFQADVSEARAARCLLEQVQACFSRPPSVVVSCAGITQDEFLLHMSEDDWDKVIAVNLKGTFLVTQAAAQALVSNGCRGSIINISSIVGKVGNVGQTNYAASKAGVIGLTQTAARELGRHGIRCNSVLPGFIATPMTQKVPQKVVDKITEMIPMGHLGDPEDVADVVAFLASEDSGYITGTSVEVTGGLFM
modifications: full-length
B4: Q9NZ08 (protein, UniProt Q9NZ08 1-941, looked up)
chain: MVFLPLKWSLATMSFLLSSLLALLTVSTPSWCQSTEASPKRSDGTPFPWNKIRLPEYVIPVHYDLLIHANLTTLTFWGTTKVEITASQPTSTIILHSHHLQISRATLRKGAGERLSEEPLQVLEHPRQEQIALLAPEPLLVGLPYTVVIHYAGNLSETFHGFYKSTYRTKEGELRILASTQFEPTAARMAFPCFDEPAFKASFSIKIRREPRHLAISNMPLVKSVTVAEGLIEDHFDVTVKMSTYLVAFIISDFESVSKITKSGVKVSVYAVPDKINQADYALDAAVTLLEFYEDYFSIPYPLPKQDLAAIPDFQSGAMENWGLTTYRESALLFDAEKSSASSKLGITMTVAHELAHQWFGNLVTMEWWNDLWLNEGFAKFMEFVSVSVTHPELKVGDYFFGKCFDAMEVDALNSSHPVSTPVENPAQIREMFDDVSYDKGACILNMLREYLSADAFKSGIVQYLQKHSYKNTKNEDLWDSMASICPTDGVKGMDGFCSRSQHSSSSSHWHQEGVDVKTMMNTWTLQKGFPLITITVRGRNVHMKQEHYMKGSDGAPDTGYLWHVPLTFITSKSDMVHRFLLKTKTDVLILPEEVEWIKFNVGMNGYYIVHYEDDGWDSLTGLLKGTHTAVSSNDRASLINNAFQLVSIGKLSIEKALDLSLYLKHETEIMPVFQGLNELIPMYKLMEKRDMNEVETQFKAFLIRLLRDLIDKQTWTDEGSVSERMLRSQLLLLACVHNYQPCVQRAEGYFRKWKESNGNLSLPVDVTLAVFAVGAQSTEGWDFLYSKYQFSLSSTEKSQIEFALCRTQNKEKLQWLLDESFKGDKIKTQEFPQILTLIGRNPVGYPLAWQFLRKNWNKLVQKFELGSSSIAHMVMGTTNQFSTRTRLEEVKGFFSSLKENGSQLRCVQQTIETIEENIGWMDKNFDKIRVWLQSEKLERM
modifications: full-length
B5: Q92731 (protein, UniProt Q92731 1-530, looked up)
chain: MDIKNSPSSLNSPSSYNCSQSILPLEHGSIYIPSSYVDSHHEYPAMTFYSPAVMNYSIPSNVTNLEGGPGRQTTSPNVLWPTPGHLSPLVVHRQLSHLYAEPQKSPWCEARSLEHTLPVNRETLKRKVSGNRCASPVTGPGSKRDAHFCAVCSDYASGYHYGVWSCEGCKAFFKRSIQGHNDYICPATNQCTIDKNRRKSCQACRLRKCYEVGMVKCGSRRERCGYRLVRRQRSADEQLHCAGKAKRSGGHAPRVRELLLDALSPEQLVLTLLEAEPPHVLISRPSAPFTEASMMMSLTKLADKELVHMISWAKKIPGFVELSLFDQVRLLESCWMEVLMMGLMWRSIDHPGKLIFAPDLVLDRDEGKCVEGILEIFDMLLATTSRFRELKLQHKEYLCVKAMILLNSSMYPLVTATQDADSSRKLAHLLNAVTDALVWVIAKSGISSQQQSMRLANLLMLLSHVRHASNKGMEHLLNMKCKNVVPVYDLLLEMLNAHVLRGCKSSITGSECSPAEDSKSKEGSQNPQSQ
modifications: full-length
B6: P32754 (protein, UniProt P32754 1-393, looked up)
chain: MTTYSDKGAKPERGRFLHFHSVTFWVGNAKQATSFYCSKMGFEPLAYRGLETGSREVVSHVIKQGKIVFVLSSALNPWNKEMGDHLVKHGDGVKDIAFEVEDCDYIVQKARERGAKIMREPWVEQDKFGKVKFAVLQTYGDTTHTLVEKMNYIGQFLPGYEAPAFMDPLLPKLPKCSLEMIDHIVGNQPDQEMVSASEWYLKNLQFHRFWSVDDTQVHTEYSSLRSIVVANYEESIKMPINEPAPGKKKSQIQEYVDYNGGAGVQHIALKTEDIITAIRHLRERGLEFLSVPSTYYKQLREKLKTAKIKVKENIDALEELKILVDYDEKGYLLQIFTKPVQDRPTLFLEVIQRHNHQGFGAGNFNSLFKAFEEEQNLRGNLTNMETNGVVPGM
modifications: full-length
B7: Q6MZW2 (protein, UniProt Q6MZW2 1-842, looked up)
chain: MKPGGFWLHLTLLGASLPAALGWMDPGTSRGPDVGVGESQAEEPRSFEVTRREGLSSHNELLASCGKKFCSRGSRCVLSRKTGEPECQCLEACRPSYVPVCGSDGRFYENHCKLHRAACLLGKRITVIHSKDCFLKGDTCTMAGYARLKNVLLALQTRLQPLQEGDSRQDPASQKRLLVESLFRDLDADGNGHLSSSELAQHVLKKQDLDEDLLGCSPGDLLRFDDYNSDSSLTLREFYMAFQVVQLSLAPEDRVSVTTVTVGLSTVLTCAVHGDLRPPIIWKRNGLTLNFLDLEDINDFGEDDSLYITKVTTIHMGNYTCHASGHEQLFQTHVLQVNVPPVIRVYPESQAQEPGVAASLRCHAEGIPMPRITWLKNGVDVSTQMSKQLSLLANGSELHISSVRYEDTGAYTCIAKNEVGVDEDISSLFIEDSARKTLANILWREEGLSVGNMFYVFSDDGIIVIHPVDCEIQRHLKPTEKIFMSYEEICPQREKNATQPCQWVSAVNVRNRYIYVAQPALSRVLVVDIQAQKVLQSIGVDPLPAKLSYDKSHDQVWVLSWGDVHKSRPSLQVITEASTGQSQHLIRTPFAGVDDFFIPPTNLIINHIRFGFIFNKSDPAVHKVDLETMMPLKTIGLHHHGCVPQAMAHTHLGGYFFIQCRQDSPASAARQLLVDSVTDSVLGPNGDVTGTPHTSPDGRFIVSAAADSPWLHVQEITVRGEIQTLYDLQINSGISDLAFQRSFTESNQYNIYAALHTEPDLLFLELSTGKVGMLKNLKEPPAGPAQPWGGTHRIMRDSGLFGQYLLTPARESLFLINGRQNTLRCEVSGIKGGTTVVWVGEV
modifications: full-length

Experiment: TMTcalibrator quantification of regulated proteins in AD CSF versus control
Set-up: species or system human
Settings: CSF of AD patient versus control; non-modified peptides of each protein summed for three control and three AD cases
For B1, the “Log2 AD/Control” value was 1.03. With B2 the “Log2 AD/Control” value was 0.86. In the case of B3, the “Log2 AD/Control” value is reported as 0.87. With B4 the “Log2 AD/Control” value was 1.16. For B5, the “Log2 AD/Control” value was 1.73. In the case of B6, the “Log2 AD/Control” value is reported as 0.76. In the case of B7, the “Log2 AD/Control” value is reported as 1.38.
